Experimental data: publication PMC10216487
No constants are given. Whether binding was seen depends on the method and setting. Binding seen in cells or lysates may run through a third protein. Binding can be weak; no strength is given.

Protein sequences, listed by entry. Tags and fused reporters are not part of them. Lines headed by an entry give the natural chain unless they say otherwise; changes in a name come on top.
UniProt Q96RK0: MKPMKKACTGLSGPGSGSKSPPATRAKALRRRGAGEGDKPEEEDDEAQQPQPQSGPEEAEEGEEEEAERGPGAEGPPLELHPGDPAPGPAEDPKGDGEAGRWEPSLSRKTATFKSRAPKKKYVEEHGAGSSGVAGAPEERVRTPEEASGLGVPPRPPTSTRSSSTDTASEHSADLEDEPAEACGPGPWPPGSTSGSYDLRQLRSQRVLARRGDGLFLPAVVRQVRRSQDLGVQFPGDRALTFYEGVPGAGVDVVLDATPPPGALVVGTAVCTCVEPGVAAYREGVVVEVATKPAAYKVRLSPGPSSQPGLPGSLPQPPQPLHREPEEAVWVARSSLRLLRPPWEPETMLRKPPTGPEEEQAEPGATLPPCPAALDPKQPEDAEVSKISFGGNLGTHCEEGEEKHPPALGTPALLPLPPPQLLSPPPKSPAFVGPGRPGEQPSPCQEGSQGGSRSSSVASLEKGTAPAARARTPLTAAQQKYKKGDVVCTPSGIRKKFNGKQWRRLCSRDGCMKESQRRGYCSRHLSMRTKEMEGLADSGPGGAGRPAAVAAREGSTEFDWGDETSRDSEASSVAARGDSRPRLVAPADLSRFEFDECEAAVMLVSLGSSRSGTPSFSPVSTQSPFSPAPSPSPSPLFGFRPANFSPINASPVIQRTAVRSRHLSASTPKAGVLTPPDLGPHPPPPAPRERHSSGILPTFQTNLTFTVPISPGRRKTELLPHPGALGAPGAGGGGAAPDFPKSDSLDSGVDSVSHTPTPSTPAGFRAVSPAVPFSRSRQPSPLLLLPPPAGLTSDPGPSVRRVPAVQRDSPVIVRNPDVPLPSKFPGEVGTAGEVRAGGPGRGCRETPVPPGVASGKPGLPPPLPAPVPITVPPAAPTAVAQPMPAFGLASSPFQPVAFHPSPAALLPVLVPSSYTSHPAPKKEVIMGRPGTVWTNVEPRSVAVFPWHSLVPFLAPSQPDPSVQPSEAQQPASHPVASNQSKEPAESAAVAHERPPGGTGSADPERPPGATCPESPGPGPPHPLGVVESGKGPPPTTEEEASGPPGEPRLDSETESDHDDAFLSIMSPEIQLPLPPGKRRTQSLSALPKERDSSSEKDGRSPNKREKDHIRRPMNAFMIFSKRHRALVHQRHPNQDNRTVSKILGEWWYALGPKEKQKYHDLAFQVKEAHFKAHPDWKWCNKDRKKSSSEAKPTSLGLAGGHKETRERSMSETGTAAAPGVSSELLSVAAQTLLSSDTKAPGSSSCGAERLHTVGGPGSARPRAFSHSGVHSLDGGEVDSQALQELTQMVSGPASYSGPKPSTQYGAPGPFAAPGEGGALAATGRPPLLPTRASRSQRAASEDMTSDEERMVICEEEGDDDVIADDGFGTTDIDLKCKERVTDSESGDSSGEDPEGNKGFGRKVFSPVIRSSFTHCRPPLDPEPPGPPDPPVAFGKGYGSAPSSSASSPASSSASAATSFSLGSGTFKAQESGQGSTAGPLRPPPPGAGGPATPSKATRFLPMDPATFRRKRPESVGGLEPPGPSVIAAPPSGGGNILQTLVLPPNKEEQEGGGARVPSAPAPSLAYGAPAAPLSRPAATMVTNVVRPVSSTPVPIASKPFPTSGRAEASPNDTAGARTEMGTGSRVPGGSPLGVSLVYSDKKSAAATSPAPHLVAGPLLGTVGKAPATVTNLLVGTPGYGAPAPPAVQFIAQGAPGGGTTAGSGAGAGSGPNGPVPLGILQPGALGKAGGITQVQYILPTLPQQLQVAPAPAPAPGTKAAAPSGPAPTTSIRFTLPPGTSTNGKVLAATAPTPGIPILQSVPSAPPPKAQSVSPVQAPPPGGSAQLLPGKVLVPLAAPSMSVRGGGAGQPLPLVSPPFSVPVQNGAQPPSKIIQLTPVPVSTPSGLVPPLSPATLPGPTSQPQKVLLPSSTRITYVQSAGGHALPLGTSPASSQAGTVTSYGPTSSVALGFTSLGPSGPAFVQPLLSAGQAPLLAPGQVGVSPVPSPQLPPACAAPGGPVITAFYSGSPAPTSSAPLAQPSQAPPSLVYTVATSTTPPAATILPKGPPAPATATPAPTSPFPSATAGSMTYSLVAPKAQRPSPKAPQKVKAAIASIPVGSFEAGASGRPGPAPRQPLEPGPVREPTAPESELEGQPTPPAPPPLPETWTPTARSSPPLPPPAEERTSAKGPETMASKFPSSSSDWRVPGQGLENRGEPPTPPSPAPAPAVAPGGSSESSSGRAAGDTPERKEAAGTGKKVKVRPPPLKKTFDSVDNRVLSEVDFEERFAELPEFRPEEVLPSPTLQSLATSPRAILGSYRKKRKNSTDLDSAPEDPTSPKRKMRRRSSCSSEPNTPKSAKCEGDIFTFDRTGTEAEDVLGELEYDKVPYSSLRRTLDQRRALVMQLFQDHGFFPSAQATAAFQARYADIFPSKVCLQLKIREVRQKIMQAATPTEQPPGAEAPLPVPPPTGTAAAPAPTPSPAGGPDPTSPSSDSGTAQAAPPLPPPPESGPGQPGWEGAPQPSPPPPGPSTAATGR
UniProt P51531: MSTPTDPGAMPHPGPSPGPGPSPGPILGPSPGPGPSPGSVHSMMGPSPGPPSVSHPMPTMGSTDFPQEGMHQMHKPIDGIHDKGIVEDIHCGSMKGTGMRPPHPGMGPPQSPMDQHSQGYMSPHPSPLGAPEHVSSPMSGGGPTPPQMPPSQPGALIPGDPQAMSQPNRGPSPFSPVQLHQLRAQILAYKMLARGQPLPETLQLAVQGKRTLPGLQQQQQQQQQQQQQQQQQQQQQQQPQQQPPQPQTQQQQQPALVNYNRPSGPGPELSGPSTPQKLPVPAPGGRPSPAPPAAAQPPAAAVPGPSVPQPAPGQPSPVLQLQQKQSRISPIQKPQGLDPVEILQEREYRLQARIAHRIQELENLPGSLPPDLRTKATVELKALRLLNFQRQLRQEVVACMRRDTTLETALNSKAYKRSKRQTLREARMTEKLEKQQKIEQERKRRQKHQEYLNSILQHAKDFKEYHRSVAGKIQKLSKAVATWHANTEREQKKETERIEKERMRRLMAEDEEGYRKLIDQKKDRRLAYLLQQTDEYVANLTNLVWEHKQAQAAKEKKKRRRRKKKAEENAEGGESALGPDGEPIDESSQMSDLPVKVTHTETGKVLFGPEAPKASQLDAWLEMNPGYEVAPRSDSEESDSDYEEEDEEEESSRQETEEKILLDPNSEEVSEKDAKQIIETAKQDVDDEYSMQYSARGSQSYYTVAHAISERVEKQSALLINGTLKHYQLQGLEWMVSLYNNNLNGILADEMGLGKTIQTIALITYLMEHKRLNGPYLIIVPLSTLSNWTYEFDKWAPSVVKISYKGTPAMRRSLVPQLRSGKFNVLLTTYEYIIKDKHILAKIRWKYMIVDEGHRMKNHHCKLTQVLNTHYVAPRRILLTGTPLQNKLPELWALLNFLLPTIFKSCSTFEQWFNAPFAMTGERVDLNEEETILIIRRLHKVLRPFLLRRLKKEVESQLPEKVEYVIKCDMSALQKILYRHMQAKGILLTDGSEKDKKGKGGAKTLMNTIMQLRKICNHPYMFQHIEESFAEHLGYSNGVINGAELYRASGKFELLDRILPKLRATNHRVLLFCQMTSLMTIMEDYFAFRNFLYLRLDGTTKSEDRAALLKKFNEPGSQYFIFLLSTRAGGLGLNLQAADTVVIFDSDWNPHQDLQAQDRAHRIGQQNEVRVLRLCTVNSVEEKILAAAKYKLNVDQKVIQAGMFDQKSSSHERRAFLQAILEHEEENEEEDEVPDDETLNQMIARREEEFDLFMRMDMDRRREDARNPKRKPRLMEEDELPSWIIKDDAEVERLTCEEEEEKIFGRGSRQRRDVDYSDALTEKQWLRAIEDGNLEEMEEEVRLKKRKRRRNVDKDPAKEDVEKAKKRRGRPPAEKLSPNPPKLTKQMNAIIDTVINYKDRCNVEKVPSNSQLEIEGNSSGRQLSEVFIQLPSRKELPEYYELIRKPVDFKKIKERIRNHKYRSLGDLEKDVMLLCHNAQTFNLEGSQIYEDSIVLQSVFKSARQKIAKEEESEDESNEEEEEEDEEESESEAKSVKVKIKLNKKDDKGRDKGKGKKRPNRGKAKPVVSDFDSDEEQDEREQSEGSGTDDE
UniProt Q92922: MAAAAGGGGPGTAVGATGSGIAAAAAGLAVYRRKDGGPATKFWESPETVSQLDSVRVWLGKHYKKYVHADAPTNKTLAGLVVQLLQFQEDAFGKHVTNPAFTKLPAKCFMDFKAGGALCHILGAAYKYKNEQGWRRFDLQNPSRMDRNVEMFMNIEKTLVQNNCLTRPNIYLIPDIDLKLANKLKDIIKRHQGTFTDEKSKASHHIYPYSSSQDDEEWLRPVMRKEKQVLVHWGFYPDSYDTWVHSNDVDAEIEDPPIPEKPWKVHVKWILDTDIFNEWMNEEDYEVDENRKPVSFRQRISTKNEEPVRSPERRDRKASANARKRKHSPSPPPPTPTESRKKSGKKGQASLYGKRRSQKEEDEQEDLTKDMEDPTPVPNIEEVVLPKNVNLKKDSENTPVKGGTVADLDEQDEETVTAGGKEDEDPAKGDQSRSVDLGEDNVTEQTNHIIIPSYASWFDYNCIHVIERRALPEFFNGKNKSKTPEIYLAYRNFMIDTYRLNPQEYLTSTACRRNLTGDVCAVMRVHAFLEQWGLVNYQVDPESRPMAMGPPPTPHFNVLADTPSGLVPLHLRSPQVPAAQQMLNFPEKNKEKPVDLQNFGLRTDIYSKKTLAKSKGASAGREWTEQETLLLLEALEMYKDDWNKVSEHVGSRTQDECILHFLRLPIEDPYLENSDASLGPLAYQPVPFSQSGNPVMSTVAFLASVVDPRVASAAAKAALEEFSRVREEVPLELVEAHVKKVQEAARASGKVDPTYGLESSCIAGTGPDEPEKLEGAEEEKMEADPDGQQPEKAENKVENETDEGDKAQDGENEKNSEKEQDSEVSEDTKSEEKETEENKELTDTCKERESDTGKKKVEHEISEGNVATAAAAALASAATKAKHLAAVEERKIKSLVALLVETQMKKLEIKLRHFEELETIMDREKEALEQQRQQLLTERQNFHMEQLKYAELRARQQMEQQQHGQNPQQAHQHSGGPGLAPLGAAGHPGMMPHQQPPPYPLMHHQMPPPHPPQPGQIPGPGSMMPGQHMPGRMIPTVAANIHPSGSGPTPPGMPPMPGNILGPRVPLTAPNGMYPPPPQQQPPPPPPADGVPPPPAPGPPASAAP

Target: N-terminal FLAG-CIC-short form (FLAG-CIC-S) (UniProt Q96RK0)
Assay: proximity ligation; antibodies against FLAG and ARID1A, SMARCA2, SMARCC1 or ARID2 in HEK-CIC^KO-D10 cells expressing F-CIC-S, empty vector cells as control; PLA spots per nuclear region, interphase (<40 nm)

binding | Substance
binds | SMARCA2 (from UniProt P51531 1-1590)
binds | SMARCC1 (from UniProt Q92922 1-1105)
